{"sequences": {"note": "Sequences of proteins named here, by UniProt entry; tags and fusion partners are left off.", "UniProt Q16666": "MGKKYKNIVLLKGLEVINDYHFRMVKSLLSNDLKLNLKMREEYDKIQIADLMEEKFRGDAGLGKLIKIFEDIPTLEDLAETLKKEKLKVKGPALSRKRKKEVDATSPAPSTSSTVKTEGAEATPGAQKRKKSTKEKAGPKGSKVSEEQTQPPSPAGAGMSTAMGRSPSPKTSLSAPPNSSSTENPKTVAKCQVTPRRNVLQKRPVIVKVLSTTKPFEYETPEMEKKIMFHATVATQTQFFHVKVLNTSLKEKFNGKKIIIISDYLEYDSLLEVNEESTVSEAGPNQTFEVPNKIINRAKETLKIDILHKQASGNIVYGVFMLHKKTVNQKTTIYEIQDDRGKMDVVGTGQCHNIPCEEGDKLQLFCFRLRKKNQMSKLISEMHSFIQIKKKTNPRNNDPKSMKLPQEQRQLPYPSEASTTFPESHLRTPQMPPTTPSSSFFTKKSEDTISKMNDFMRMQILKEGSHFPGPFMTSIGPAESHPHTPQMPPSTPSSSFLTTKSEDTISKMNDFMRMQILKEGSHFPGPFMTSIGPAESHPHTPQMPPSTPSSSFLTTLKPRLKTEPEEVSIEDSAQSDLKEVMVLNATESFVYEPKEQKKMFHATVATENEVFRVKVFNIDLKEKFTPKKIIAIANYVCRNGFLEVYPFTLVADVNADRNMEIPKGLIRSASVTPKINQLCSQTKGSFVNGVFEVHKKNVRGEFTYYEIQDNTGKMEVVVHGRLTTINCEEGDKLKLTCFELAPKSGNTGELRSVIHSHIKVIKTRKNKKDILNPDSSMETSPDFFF"}, "source": "paper PMC6307200", "biological_target": "T1, ADAR1 (human (endogenous in B-EBV cells)) (UniProt P55265)", "T1 sequence": "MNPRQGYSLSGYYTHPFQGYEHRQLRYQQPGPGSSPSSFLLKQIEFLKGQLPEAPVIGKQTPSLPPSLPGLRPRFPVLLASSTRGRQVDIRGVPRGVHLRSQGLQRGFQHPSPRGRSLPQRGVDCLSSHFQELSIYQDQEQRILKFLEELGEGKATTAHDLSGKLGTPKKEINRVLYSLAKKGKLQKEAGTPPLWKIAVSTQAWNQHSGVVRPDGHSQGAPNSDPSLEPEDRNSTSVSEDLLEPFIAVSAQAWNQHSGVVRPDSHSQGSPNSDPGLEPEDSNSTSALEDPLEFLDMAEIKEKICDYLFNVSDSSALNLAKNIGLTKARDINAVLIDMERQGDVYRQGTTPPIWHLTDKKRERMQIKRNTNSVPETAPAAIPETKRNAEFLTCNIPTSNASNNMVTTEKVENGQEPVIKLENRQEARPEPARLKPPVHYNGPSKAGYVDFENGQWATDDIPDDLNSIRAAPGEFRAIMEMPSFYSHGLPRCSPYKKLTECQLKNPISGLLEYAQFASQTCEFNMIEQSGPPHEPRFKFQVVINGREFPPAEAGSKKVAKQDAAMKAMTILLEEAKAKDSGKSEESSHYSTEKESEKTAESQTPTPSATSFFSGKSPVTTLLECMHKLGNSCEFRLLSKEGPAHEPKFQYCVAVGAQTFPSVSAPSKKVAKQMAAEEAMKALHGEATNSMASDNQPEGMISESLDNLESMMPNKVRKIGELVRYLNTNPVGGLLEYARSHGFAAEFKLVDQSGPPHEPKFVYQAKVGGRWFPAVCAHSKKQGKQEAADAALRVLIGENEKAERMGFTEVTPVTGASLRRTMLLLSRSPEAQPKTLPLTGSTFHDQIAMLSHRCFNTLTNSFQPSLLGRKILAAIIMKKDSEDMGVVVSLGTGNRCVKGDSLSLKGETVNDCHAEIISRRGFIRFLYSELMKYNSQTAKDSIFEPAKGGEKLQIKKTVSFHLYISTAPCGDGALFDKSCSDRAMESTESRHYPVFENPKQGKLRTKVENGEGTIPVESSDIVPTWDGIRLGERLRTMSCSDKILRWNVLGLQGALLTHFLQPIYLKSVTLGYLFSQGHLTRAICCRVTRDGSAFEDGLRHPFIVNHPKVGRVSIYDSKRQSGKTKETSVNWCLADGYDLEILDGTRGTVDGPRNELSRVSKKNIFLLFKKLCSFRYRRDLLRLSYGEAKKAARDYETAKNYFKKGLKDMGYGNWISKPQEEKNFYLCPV", "assay": "co-IP; B-EBV cells lysed by sonication in Tris-HCl 50 mM pH 7.4, NaCl 300 mM, 1% Triton X-100; extracts on Protein G Dynabeads coupled with mouse anti-ADAR1, 2 h at 4 °C, 5 washes; western blot for IFI16 and RPA70; IgG precipitate as control", "note": "These are yes or no findings as the source states them, for the method shown. Binding seen in cells or lysates may run through a third protein. Some entries that bind do so weakly or less than the wild type.", "data": [{"substance": "IFI16, interferon gamma inducible protein 16 (from UniProt Q16666 1-785)", "values": [{"measurement": "binding", "value": "binds weakly"}]}]}
